Laboratory results: patent US20110182916A1, “Use of Agonists of Integrin Alpha 5 for Inducing the Osteogenic Differentiation of Mesenchymal Stem Cells” (priority 2008, published 2011)
For at least one compound, name, drawing or mass did not settle the structure.

Assays:
hMSCs = test: Osteoblast marker mRNA (Runx2, ALP, Col1A1) by quantitative RT-PCR; type: cell-based, human; settings: dexamethasone 10^-7 M, 1 and 3 days of treatment
Protocol: The expression of mRNA markers of the osteoblast lineage (Runx2, ALP, type 1 collagen) was evaluated by quantitative RT-PCR. Total RNAs were isolated using Trizol reagent (Laboratoires Eurobio, France) according to the manufacturer's instructions. Three μg of total RNA from each sample were reverse transcribed using MMLV reverse transcriptase and oligodT primers, at 37° C. for 90 min. The relative mRNA levels were evaluated by quantitative PCR using LightCycler Instrument (Roche Applied Science, Indianapolis Ind., USA) and SYBR Green PCR kit (ABGen, Courtabceuf, France). Triplicate reactions were carried out for each sample. Signal was normalized to 18S as internal control.

human primary MSCs = test: Alkaline phosphatase (ALP) activity, colorimetric assay / staining; type: cell-based; settings: dexamethasone 10^-7 M
F/STRO1+A cells = test: Microarray gene expression profile in clonal cells; type: cell-based, human; settings: dexamethasone, day 1 and 3, F/STRO1+A cells
ITGA5 in F/STRO1+A cells = test: ITGA5 mRNA expression by quantitative RT-PCR in clonal cells; type: cell-based, human; settings: dexamethasone-induced differentiation, 1 and 3 days, results not shown
primary MSCs = test: Microarray gene expression profile (HG-U133 Plus 2.0); type: cell-based, human; settings: dexamethasone, day 1 and 3, primary MSCs

## C[C@@H]1C[C@H]2[C@@H]3CCC4=CC(=O)C=C[C@]4(C)[C@@]3(F)[C@@H](O)C[C@]2(C)[C@@]1(O)C(=O)CO [dexamethasone]
hMSCs
  ALP gene expression (mRNA): increased
  Col1A1 gene expression (mRNA): increased
  Runx2 gene expression (mRNA): increased
Human primary MSCs
  ALP activity: marked increase
F/STRO1+A cells
  ITGA5 gene regulation (microarray): upregulated
ITGA5 in F/STRO1+A cells
  ITGA5 mRNA levels: increased
Primary MSCs
  ITGA5 gene regulation (microarray): upregulated
